Measured values from paper PMC2779847.
No constants are given. Whether binding was seen depends on the method and setting. Some results given as binding are weak or reduced against the parent protein; the word gives no strength.

Molecular target: M. smegmatis core RNA polymerase (α2ββ'ω) (M. smegmatis) (UniProt A0QSL8)
Experiment: reconstitution of the holoenzyme; M. smegmatis core RNA polymerase mixed with M. tuberculosis σ^A or σ^B (0.25 or 0.95 µM core, 0.5 or 1.9 µM sigma); holoenzymes then used for a pull-down on biotinylated msdps2 promoter DNA (western blot for sigma) and for run-off transcription; both …

Row | Substance | binding
1 | M. tuberculosis sigma factor σ^A (from UniProt P9WGI1 1-528) | binds
2 | M. tuberculosis sigma factor σ^B (from UniProt P9WGI5 1-323) | binds
